From the supplement of paper PMC10849652
The list shows a part of the results.

Chains of the proteins cited; added tags and fusions are not shown. Lines headed by an entry give the natural chain unless they say otherwise; changes in a name come on top.
UniProt P0CAP2, whole entry, looked up: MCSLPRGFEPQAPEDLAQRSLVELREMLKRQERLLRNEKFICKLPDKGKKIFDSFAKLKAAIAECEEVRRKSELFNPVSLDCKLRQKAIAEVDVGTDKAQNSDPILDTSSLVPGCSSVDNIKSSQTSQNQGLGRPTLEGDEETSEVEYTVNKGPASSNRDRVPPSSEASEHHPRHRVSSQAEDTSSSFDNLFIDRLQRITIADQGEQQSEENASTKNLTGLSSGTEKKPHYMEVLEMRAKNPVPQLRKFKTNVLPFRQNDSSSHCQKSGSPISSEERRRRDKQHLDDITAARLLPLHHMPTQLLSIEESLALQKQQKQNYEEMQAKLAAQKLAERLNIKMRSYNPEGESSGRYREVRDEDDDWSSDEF
UniProt O43447: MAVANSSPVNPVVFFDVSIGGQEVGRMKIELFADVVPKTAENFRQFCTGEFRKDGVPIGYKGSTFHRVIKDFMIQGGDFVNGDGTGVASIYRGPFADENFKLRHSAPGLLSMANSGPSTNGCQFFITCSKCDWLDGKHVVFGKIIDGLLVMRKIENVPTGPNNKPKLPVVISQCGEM
UniProt Q9NRF9: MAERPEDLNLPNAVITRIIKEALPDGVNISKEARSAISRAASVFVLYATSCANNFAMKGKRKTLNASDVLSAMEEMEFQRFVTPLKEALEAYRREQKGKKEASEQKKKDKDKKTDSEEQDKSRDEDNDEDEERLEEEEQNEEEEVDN
UniProt Q15181: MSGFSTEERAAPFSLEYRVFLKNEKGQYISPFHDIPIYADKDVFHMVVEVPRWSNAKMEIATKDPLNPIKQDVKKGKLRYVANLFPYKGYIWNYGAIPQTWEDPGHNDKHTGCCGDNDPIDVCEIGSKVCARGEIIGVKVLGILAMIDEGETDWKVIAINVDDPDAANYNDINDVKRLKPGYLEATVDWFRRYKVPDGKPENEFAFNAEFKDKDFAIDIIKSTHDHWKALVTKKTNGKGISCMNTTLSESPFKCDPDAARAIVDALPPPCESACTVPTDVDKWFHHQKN
UniProt Q6UW63: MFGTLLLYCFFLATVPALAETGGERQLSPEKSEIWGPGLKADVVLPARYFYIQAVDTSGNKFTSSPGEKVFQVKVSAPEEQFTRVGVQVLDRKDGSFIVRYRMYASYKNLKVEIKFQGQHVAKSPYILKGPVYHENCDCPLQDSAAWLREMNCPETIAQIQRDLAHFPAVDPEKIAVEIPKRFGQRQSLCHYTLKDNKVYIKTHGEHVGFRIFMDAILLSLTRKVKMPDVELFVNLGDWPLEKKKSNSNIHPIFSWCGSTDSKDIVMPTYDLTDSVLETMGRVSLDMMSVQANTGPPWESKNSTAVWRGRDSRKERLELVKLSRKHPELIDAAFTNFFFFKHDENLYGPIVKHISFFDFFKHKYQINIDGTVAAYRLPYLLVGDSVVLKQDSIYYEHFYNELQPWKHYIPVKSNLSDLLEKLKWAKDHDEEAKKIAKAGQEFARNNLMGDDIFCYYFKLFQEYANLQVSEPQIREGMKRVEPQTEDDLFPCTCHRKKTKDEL
UniProt Q99575: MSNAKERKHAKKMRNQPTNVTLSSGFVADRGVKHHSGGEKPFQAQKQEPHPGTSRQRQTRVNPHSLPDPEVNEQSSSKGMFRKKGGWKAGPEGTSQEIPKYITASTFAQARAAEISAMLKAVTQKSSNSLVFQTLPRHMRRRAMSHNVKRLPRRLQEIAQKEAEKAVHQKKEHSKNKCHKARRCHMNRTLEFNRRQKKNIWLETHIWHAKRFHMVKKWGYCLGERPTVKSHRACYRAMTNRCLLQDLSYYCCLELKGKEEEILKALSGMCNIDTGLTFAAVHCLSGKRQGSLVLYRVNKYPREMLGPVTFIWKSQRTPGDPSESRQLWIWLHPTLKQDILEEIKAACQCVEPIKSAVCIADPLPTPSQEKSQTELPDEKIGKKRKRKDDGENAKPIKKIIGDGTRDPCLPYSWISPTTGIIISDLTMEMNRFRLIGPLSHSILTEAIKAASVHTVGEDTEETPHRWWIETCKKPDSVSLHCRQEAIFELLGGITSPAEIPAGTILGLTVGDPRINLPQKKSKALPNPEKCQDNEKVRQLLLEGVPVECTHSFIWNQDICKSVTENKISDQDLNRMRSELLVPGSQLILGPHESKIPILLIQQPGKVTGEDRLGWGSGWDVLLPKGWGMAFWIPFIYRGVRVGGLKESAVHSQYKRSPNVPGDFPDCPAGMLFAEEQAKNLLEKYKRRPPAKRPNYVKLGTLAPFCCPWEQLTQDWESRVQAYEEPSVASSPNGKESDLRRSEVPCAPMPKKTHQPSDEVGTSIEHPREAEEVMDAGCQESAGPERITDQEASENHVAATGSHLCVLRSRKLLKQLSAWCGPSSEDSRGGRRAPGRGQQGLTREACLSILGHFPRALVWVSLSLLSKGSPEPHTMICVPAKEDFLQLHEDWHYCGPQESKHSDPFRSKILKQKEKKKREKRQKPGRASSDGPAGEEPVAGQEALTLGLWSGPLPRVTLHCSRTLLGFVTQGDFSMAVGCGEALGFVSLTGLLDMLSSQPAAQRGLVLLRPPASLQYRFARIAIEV
UniProt Q13136: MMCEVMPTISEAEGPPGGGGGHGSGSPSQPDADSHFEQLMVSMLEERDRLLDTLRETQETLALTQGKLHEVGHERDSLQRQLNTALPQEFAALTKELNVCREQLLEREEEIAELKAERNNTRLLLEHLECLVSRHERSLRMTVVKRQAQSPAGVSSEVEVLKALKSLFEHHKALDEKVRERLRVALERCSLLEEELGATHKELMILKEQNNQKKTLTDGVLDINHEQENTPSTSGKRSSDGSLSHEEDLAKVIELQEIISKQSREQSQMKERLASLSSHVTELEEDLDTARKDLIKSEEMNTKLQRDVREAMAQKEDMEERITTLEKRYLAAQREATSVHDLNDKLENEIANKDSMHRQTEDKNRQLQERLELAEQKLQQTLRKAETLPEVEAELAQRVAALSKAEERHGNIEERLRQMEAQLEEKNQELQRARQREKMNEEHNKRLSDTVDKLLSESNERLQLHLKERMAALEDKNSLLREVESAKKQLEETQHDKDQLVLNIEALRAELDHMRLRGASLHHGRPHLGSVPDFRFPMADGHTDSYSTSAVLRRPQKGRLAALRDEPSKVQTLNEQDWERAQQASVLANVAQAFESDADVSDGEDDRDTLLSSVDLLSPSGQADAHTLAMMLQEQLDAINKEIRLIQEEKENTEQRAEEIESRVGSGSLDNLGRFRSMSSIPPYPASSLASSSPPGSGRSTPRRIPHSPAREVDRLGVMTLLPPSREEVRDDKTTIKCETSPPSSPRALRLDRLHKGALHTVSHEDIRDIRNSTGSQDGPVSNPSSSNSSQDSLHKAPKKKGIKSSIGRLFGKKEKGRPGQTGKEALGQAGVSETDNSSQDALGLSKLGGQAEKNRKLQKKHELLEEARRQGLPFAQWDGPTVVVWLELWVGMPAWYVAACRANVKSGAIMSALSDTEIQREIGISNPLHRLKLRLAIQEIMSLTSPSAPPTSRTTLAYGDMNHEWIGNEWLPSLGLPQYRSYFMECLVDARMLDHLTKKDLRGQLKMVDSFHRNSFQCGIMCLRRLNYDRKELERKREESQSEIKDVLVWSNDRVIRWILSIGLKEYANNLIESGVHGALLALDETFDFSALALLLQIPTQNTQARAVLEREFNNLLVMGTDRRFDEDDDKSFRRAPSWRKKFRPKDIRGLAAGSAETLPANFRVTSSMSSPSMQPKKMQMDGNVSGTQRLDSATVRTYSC
UniProt Q10713: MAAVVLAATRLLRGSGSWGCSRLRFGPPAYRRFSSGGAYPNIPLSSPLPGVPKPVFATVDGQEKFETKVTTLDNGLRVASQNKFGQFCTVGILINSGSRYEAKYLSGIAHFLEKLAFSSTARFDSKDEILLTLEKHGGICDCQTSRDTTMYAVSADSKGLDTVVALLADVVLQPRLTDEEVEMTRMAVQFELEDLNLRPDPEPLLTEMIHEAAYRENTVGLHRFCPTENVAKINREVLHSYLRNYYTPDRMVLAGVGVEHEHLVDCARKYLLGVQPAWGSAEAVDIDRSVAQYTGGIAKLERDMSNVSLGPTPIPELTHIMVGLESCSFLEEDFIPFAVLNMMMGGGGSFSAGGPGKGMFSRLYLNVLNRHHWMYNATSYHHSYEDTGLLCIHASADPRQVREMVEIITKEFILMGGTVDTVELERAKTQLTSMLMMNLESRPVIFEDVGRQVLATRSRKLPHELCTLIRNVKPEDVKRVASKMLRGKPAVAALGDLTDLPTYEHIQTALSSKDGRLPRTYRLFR
UniProt O60664: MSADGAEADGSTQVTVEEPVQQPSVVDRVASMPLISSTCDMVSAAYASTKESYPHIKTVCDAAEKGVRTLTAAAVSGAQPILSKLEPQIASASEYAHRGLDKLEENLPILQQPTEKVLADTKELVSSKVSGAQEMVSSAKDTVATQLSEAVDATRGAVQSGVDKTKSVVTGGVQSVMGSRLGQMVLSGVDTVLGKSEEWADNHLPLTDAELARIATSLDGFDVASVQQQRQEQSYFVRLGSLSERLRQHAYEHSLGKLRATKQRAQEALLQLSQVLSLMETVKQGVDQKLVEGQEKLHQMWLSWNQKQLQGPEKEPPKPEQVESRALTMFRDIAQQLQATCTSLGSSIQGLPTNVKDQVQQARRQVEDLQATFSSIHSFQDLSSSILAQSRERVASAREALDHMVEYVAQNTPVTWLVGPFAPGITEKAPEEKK
UniProt Q6PFW1: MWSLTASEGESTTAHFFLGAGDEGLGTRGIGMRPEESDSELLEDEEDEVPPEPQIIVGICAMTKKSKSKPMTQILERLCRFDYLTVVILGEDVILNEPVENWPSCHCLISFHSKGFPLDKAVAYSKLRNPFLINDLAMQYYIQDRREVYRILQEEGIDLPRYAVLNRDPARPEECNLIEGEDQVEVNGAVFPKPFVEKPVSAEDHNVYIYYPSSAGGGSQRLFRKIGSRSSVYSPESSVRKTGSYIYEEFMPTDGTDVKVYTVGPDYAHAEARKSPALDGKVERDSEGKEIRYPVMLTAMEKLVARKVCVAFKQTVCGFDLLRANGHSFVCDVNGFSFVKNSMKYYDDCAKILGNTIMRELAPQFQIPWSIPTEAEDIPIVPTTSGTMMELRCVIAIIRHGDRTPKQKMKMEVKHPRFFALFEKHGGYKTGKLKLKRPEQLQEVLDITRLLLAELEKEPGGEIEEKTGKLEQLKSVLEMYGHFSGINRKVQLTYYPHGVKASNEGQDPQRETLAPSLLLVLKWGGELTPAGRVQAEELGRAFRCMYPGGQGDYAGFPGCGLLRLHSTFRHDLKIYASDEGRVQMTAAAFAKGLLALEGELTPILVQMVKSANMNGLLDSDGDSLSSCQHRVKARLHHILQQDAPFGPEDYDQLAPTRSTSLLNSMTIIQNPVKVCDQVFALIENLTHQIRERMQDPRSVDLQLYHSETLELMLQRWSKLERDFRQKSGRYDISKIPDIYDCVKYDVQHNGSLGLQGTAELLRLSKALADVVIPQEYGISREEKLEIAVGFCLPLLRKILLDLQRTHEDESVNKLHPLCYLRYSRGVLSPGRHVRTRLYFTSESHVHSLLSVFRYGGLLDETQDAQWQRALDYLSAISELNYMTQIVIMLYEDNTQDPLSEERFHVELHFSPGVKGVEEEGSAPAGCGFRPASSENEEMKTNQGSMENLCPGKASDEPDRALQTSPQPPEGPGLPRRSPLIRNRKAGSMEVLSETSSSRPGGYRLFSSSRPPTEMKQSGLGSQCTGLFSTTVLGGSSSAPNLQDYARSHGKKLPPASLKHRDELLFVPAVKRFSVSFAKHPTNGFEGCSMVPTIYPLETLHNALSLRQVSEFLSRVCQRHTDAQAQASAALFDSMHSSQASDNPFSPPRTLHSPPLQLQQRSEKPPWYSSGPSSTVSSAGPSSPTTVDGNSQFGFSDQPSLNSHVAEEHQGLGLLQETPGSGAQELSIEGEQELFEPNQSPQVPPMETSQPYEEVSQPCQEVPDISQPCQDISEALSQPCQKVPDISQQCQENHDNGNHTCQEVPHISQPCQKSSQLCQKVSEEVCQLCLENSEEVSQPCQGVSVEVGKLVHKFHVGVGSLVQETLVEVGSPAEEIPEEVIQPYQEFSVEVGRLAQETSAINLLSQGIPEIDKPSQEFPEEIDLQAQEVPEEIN
UniProt O15162: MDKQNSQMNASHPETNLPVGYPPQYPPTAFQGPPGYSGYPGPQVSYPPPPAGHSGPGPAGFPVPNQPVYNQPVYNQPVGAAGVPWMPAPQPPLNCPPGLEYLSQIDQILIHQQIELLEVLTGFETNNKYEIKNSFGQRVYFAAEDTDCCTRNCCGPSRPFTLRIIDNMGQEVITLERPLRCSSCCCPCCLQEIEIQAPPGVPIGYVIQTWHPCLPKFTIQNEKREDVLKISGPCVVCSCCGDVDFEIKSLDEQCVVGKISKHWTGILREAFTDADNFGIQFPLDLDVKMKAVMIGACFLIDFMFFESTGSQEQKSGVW
UniProt Q9Y3C6: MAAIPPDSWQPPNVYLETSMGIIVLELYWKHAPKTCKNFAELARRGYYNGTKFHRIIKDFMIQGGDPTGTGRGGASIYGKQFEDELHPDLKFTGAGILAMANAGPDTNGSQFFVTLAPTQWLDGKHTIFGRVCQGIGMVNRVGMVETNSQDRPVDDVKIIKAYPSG

compound: CCN(CC)Cc1ccc2cc(COC(=O)Nc3ccc(C(=O)NO)cc3)ccc2c1 [givinostat]; assay: log2 fold change, soluble protein after heating vs DMSO (PISA); higher = thermal stabilisation; K562 cells, 10 uM, 30 min; active = over 0.2 and 3.5 SD of the protein, either way, in both replicates (recomputed)
Procedure, shortened: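 K562 cells (2×10^6 cells/mL) were treated with 10 μM compound for 30 min, and aliquots were heated for 3 min over 48°C-58°C. Pooled aliquots were extracted in PBS with 0.5% NP-40 at 4°C, and the supernatant after 21,000xg for 90 min was measured by TMTpro 16plex LC-MS/MS with channel sums equalised. Reported thermal stability, relative to control samples and from duplicates, is a log2 fold change.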

log2 fold change, inactive:
POLR2M (UniProt P0CAP2) -0.031
POLDIP3 (UniProt Q9BY77) 0.062
PPIH (UniProt O43447) 0.014
PPCS (UniProt Q9HAB8) -0.012
PPM1A isoform 3 (UniProt P35813) -0.007
POLR3B (UniProt Q9NW08) 0.138
POLE3 (UniProt Q9NRF9) -0.027
PPA1 (UniProt Q15181) -0.043
POLD3 (UniProt Q15054) 0.018
PPIL4 (UniProt Q8WUA2) 0.045
POGLUT2 (UniProt Q6UW63) 0.025
POLA1 (UniProt P09884) 0.093
POP1 (UniProt Q99575) -0.009
POLR1A (UniProt O95602) 0.083
PPFIA2 (UniProt O75334) -0.053
PPFIA1 (UniProt Q13136) 0.136
POLR3A (UniProt O14802) 0.058
PMPCA (UniProt Q10713) -0.019
POLR3G (UniProt O15318) 0.058
PLIN3 (UniProt O60664) -0.023
POMP (UniProt Q9Y244) -0.045
PPIP5K1 (UniProt Q6PFW1) -0.094
PLSCR1 (UniProt O15162) -0.033
PPCDC (UniProt Q96CD2) 0.057
PMM2 (UniProt O15305) 0.015
PLS3 (UniProt P13797) 0.035
POTEF (UniProt A5A3E0) -0.029
PLOD1 isoform 2 (UniProt Q02809) 0.031
POLR3K (UniProt Q9Y2Y1) -0.013
PNPLA8 (UniProt Q9NP80) 0.067
POLR2B (UniProt P30876) -0.005
PPIL1 (UniProt Q9Y3C6) -0.038

2 records picked at random from the list so far, as already listed:
log2 fold change, inactive:
PMPCA (UniProt Q10713) -0.019
PMM2 (UniProt O15305) 0.015
